No constants are given. Whether binding was seen depends on the method and setting. In cells and extracts the contact can be indirect. Some results given as binding are weak or reduced against the parent protein; the word gives no strength. For some of these results: Sequences can lack the tags named with a protein. Values belong to the molecule of their own block, whether it stands above or below them.
Assays:
[1] = molecular target: T1, Flag-tagged CREB3L4 (cyclic AMP-responsive element-binding protein 3-like 4) (mouse) (UniProt Q9D2A5); experiment: co-IP; NIH-3T3 cells co-transfected with Flag-tagged Creb3l4 and Cebpb, 48 h; lysis in 50 mM Tris pH 7.4, 150 mM NaCl, 0.2% Triton X-100, 0.3% NP-40; 800 μg lysate precipitated with anti-C/EBPβ or anti-CREB3L4 antibody (16 h) and protein G-agarose (2 h) at 4 °C; blot (anti-Flag in the domain mapping)
T1 sequence: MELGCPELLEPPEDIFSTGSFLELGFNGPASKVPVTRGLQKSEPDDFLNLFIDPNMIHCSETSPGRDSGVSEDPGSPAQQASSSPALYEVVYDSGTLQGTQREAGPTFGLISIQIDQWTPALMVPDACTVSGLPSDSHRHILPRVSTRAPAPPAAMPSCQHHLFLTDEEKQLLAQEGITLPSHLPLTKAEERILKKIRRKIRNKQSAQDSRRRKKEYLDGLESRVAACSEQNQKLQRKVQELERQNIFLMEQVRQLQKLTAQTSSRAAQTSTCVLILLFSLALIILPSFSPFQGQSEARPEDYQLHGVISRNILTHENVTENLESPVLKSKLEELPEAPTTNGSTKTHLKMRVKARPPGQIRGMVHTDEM

Amino acid sequences for entries named in this document (tags omitted).
UniProt P28033: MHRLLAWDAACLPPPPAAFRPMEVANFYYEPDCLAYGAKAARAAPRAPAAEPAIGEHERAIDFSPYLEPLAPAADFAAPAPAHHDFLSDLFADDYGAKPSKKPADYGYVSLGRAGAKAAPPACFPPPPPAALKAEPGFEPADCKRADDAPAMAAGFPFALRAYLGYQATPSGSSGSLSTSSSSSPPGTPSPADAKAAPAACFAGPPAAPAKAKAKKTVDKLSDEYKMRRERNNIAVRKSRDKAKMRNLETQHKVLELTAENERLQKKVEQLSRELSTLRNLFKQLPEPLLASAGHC

[2] = molecular target: C/EBPβ (CCAAT/enhancer binding protein beta), from pcDNA3.1 mCebpb-V5/His (mouse) (UniProt P28033); experiment: as above
[3] = molecular target: Endogenous C/EBPβ of 3T3-L1 cells (mouse (endogenous in 3T3-L1)) (UniProt P28033); experiment: co-IP; 3T3-L1 cells, endogenous C/EBPβ (Supplementary Figure S5b); antibodies and direction not given

binding [1]: binds
Molecule: C/EBPβ (CCAAT/enhancer binding protein beta), from pcDNA3.1 mCebpb-V5/His (from UniProt P28033 1-296)

binding [2]: binds
B1: Flag-tagged CREB3L4 (cyclic AMP-responsive element-binding protein 3-like 4) (protein, UniProt Q9D2A5 1-370)
chain: T1 sequence

binding [3]: binds
B2: CREB3L4 in 3T3-L1 cells (protein, UniProt Q9D2A5 1-370)
chain: T1 sequence

binding [2]: binds
B3: Flag-Creb3l4-BZIP (BZIP form of mouse CREB3L4) (domain or fragment, UniProt Q9D2A5 193-256)
chain: ILKKIRRKIRNKQSAQDSRRRKKEYLDGLESRVAACSEQNQKLQRKVQELERQNIFLMEQVRQL

— paper PMC4260748
